We go through 19 molecules from ChEMBL document CHEMBL4513152, “CO-ADD screening of Yantai University (China) compounds”.

Some of the results follow. Entries with a potency or affinity are not part of this list.

The subject of this assay is Pseudomonas aeruginosa. The conditions noted are these: Concentration 32 ug.mL-1; ASSAY_TEST Inhibition of Bacterial Growth; detection method Absorption (OD600); MEDIA CAMHB; plate type 384well; NBS; CORNING #3640; time 18 hr.
As for `CC(=O)O[C@H]1C[C@@]2(C)C(C[C@@H](O)C3[C@@]4(C)CC[C@@H](OC(=O)C(N)C(C)C)[C@@H](C)C4CC[C@@]32C)/C1=C(\CCC=C(C)C)C(=O)OCc1ccccc1` (some centres undefined), the Inhibition (as a rule, the change of the read-out against control, counted positive when it falls) was 9.96%.

`CC(=O)O[C@H]1C[C@@]2(C)C(C[C@@H](O)C3[C@@]4(C)CC[C@@H](OC(=O)C(C)N)[C@@H](C)C4CC[C@@]32C)/C1=C(\CCC=C(C)C)C(=O)OCc1ccccc1` (some centres undefined): the Inhibition is on record as -8.64%.

For `CC(=O)O[C@H]1C[C@@]2(C)C(C[C@@H](O)C3[C@@]4(C)CC[C@@H](OC(=O)CCCCO[N+](=O)[O-])[C@@H](C)C4CC[C@@]32C)/C1=C(\CCC=C(C)C)C(=O)OCc1ccccc1` (some centres undefined), the Inhibition is listed as -7%.

Regarding `CC(=O)O[C@H]1C[C@@]2(C)C(C[C@@H](O)C3[C@@]4(C)CC[C@@H](OC(=O)c5ccccc5C(=O)Nc5cccc(N)c5)[C@@H](C)C4CC[C@@]32C)/C1=C(\CCC=C(C)C)C(=O)OCc1ccccc1` (some centres undefined), the Inhibition is -2.99%.

With `CC(=O)O[C@H]1C[C@@]2(C)C(C[C@@H](O)C3[C@@]4(C)CC[C@@H](O)[C@@H](C)C4CC[C@@]32C)/C1=C(\CCC=C(C)C)C(=O)Oc1ccc(CCO[N+](=O)[O-])cc1` (some centres undefined), the Inhibition is listed as 21.63%.

With `CC(=O)O[C@H]1C[C@@]2(C)C(C[C@@H](O)C3[C@@]4(C)CC[C@@H](OC(=O)C(N)CC(C)C)[C@@H](C)C4CC[C@@]32C)/C1=C(\CCC=C(C)C)C(=O)OCc1ccccc1` (some centres undefined), the Inhibition amounted to 1.52%.

On to `CC(=O)O[C@H]1C[C@@]2(C)C(C[C@@H](O)C3[C@@]4(C)CC[C@@H](OC(=O)CO[N+](=O)[O-])[C@@H](C)C4CC[C@@]32C)/C1=C(\CCC=C(C)C)C(=O)OCc1ccccc1` (some centres undefined), for which the Inhibition came to 19.94%.

Regarding `CC(=O)O[C@H]1C[C@@]2(C)C(C[C@@H](O)C3[C@@]4(C)CC[C@@H](OC(=O)c5ccccc5C(=O)OCCc5ccc(OCCO[N+](=O)[O-])cc5)[C@@H](C)C4CC[C@@]32C)/C1=C(\CCC=C(C)C)C(=O)OCc1ccccc1` (some centres undefined), the Inhibition was -2.35%.

As for `CC(=O)O[C@H]1C[C@@]2(C)C(C[C@@H](O)C3[C@@]4(C)CC[C@@H](OC(=O)CCC(=O)OCCc5ccc(OCCO[N+](=O)[O-])cc5)[C@@H](C)C4CC[C@@]32C)/C1=C(\CCC=C(C)C)C(=O)OCc1ccccc1` (some centres undefined), the Inhibition is on record as -6.68%.

On to `CC(=O)O[C@H]1C[C@@]2(C)C(C[C@@H](O)C3[C@@]4(C)CC[C@@H](OC(=O)CCC(=O)Oc5ccc(CCO[N+](=O)[O-])cc5)[C@@H](C)C4CC[C@@]32C)/C1=C(\CCC=C(C)C)C(=O)OCc1ccccc1` (some centres undefined), for which the Inhibition was -14.93%.

Take `CC(=O)O[C@H]1C[C@@]2(C)C(C[C@@H](O)C3[C@@]4(C)CC[C@@H](OC(=O)CCCCCO[N+](=O)[O-])[C@@H](C)C4CC[C@@]32C)/C1=C(\CCC=C(C)C)C(=O)OCc1ccccc1` (some centres undefined): the Inhibition is -10.11%.

Consider `CC(=O)O[C@H]1C[C@@]2(C)C(C[C@@H](O)C3[C@@]4(C)CC[C@@H](O)[C@@H](C)C4CC[C@@]32C)/C1=C(\CCC=C(C)C)C(=O)On1nnc2ccccc21` (some centres undefined), for which the Inhibition was found to be 1.28%.

Turning to `CC(=O)O[C@H]1C[C@@]2(C)C(CC(=O)C3[C@@]4(C)CC[C@@H](OC(=O)CCCCO[N+](=O)[O-])[C@@H](C)C4CC[C@@]32C)/C1=C(\CCC=C(C)C)C(=O)OCc1ccccc1` (some centres undefined), the Inhibition is -3.24%.

`CC(=O)O[C@H]1C[C@@]2(C)C(C[C@@H](O)C3[C@@]4(C)CC[C@@H](OC(=O)c5ccccc5C(=O)Nc5ccc(N)cc5)[C@@H](C)C4CC[C@@]32C)/C1=C(\CCC=C(C)C)C(=O)OCc1ccccc1` (some centres undefined): the Inhibition is -5.95%.

Consider `CC(=O)O[C@H]1C[C@@]2(C)C(C[C@@H](O)C3[C@@]4(C)CC[C@@H](OC(=O)c5ccccc5C(=O)Oc5ccc(CCO[N+](=O)[O-])cc5)[C@@H](C)C4CC[C@@]32C)/C1=C(\CCC=C(C)C)C(=O)OCc1ccccc1` (some centres undefined), for which the Inhibition was -5.04%.

Consider `CC(=O)O[C@H]1C[C@@]2(C)C(CC(=O)C3[C@@]4(C)CC[C@@H](OC(=O)CCCCCO[N+](=O)[O-])[C@@H](C)C4CC[C@@]32C)/C1=C(\CCC=C(C)C)C(=O)OCc1ccccc1` (some centres undefined), for which the Inhibition was -3.27%.

Consider `CC(=O)O[C@H]1C[C@@]2(C)C(C[C@@H](O)C3[C@@]4(C)CC[C@@H](OC(=O)CCC(=O)O)[C@@H](C)C4CC[C@@]32C)/C1=C(\CCC=C(C)C)C(=O)OCc1ccccc1` (some centres undefined), for which the Inhibition stood at 2.25%.

Turning to `CC(=O)O[C@H]1C[C@@]2(C)C(C[C@@H](O)C3[C@@]4(C)CC[C@@H](O)[C@@H](C)C4CC[C@@]32C)/C1=C(\CCC=C(C)C)C(=O)OCc1ccccc1` (some centres undefined), the Inhibition stood at 15.35%.

On to `CC(=O)O[C@H]1C[C@@]2(C)C(CC(=O)C3[C@@]4(C)CCC(=O)[C@@H](C)C4CC[C@@]32C)/C1=C(\CCC=C(C)C)C(=O)OCc1ccccc1` (some centres undefined), for which the Inhibition is listed as 6.01%.
